Laboratory results from PMC12431657, “Discovery and mechanistic insights of dibenzoylmethane as a broad spectrum inhibitor of coronavirus” (PLOS Pathogens, 2025).
Where a name gives a salt, the structure may show the parent alone. Read-outs that look alike come from different tables or passages of the source. Hit rate of the full screen: of about 3,300 compounds, about 60 (2%) showed an effect of 50% or more. Some of the results follow.

Tested on: HCoV-OC43
Parameters: species or system RD; HTS, protection from HCoV-OC43 induced cell death, luminescent cell viability (CellCounting-Lite 2.0), inhibition rate
Conditions: 24 h post infection, 1 h compound pre-incubation, 10 µM, inhibitor

Structure (SMILES) | OC43 Inhibition rate [%] | OC43 Inhibition rate (OC43 Inhibition rate, 24 h) [%]
C[C@H](C[C@H](O)[C@H]1OC1(C)C)C1=C2C[C@H](O)[C@H]3[C@@]4(C)CCC(=O)C(C)(C)[C@@H]4CC[C@]3(C)[C@@]2(C)CC1 [Alisol B] | 35.6 | 
N=C(N)NCCCCN [Agmatine (sulfate)] | -13 | 
CC1(C)CCC[C@]2(C)[C@@H](C=O)C(C=O)=CC[C@@H]12 [Polygodial] | 0.9 | 
O=C(O)/C=C\C(=O)O [Maleic Acid] | -1.8 | 
O=C(O)CCc1ccccc1 [Hydrocinnamic acid] | 0.1 | 
COc1cccc(CC(=O)O)c1 [3-Methoxyphenylacetic acid] | -0.4 | 
Cc1cc(O)c2c(c1)C(=O)c1cccc(O[C@@H]3O[C@H](CO)[C@@H](O)[C@H](O)[C@H]3O)c1C2=O [Chrysophanol 8-O-glucoside] | 1.1 | 
CCCCCCCCCCCCCCCCCCOC(=O)[C@@]1(C)CC[C@]2(C)CC[C@]3(C)C(=CC(=O)[C@@H]4[C@@]5(C)CC[C@H](O)C(C)(C)[C@@H]5CC[C@]43C)[C@@H]2C1 [Stearyl glycyrrhetinate] | -2.5 | 
C[C@@H]1CC[C@]2(C(=O)O[C@@H]3O[C@H](CO)[C@@H](O)[C@H](O)[C@H]3O)CC[C@]3(C)C(=CC[C@@H]4[C@@]5(C)CC[C@H](O)[C@@](C)(CO)[C@@H]5CC[C@]43C)[C@@H]2[C@]1(C)O [Pedunculoside] | 2.3 | 
CCCCCCCCCCCC1=C(O)C(=O)C=C(O)C1=O [Embelin] | -0.4 | 
O=c1c(O)c(-c2ccc(O)c(O)c2)oc2cc(O)cc(O)c12 [Quercetin (dihydrate)] |  | -0.4
COc1c2ccoc2cc2oc(=O)ccc12 [Bergapten] | 3.9 | 
O=C(O)C=Cc1ccc(O)cc1 [p-Hydroxycinnamic acid] | 0.2 | 
CN1CCc2cc3c(c4c2C1Cc1ccccc1-4)OCO3 (stereo not shown) [Roemerine] | 2.4 | 
CC/C=C\CC1=C(C)CCC1=O [cis-Jasmone] | -6 | 
O[C@@H]1CCCC[C@H]1O (relative stereo) [trans-Cyclohexane-1,2-diol] | 2.5 | 
NC(=O)NC1NC(=O)NC1=O (stereo not shown) [Allantoin] | -0.1 | 
O=C(O)[C@H]1O[C@@H](Oc2c(O)cc(O)c3c(=O)c(O)c(-c4ccc(O)c(O)c4)oc23)[C@H](O)[C@@H](O)[C@@H]1O [Hibifolin] | -1.3 | 
CCCCCCCCCCCCCC(=O)O [Myristic acid] | -1.2 | 
CC(C)=CCC[C@](C)(O)[C@H]1CC[C@]2(C)[C@@H]1[C@H](O)C[C@@H]1[C@@]3(C)CC[C@H](O)C(C)(C)[C@@H]3[C@@H](O[C@@H]3O[C@H](CO)[C@@H](O)[C@H](O)[C@H]3O[C@@H]3O[C@H](CO)[C@@H](O)[C@H](O)[C@H]3O)C[C@]12C [Ginsenoside Rf] | -0.4 | 
O=c1cc(-c2ccc(O)cc2)oc2cc(O)ccc12 [7,4'-Dihydroxyflavone] | 14.2 | 
CN1c2c([nH]c(N)nc2=O)NC[C@@H]1CNc1ccc(C(=O)N[C@@H](CCC(=O)O)C(=O)O)cc1 [Levomefolic acid] | 6.2 | 

Structure (SMILES) | OC43 Inhibition rate [%] | OC43 Inhibition rate (OC43 Inhibition rate, 24 h) [%]
CCOC(=O)c1ccc(O)c(O)c1 [Ethyl 3,4-dihydroxybenzoate] | 0.2 | 
CCC/C=C1/OC(=O)c2ccccc21 [3-Butylidenephthalide] | -0.2 | 
COc1cc(-c2oc3cc(O)cc(O)c3c(=O)c2O[C@@H]2O[C@H](CO)[C@@H](O)[C@H](O)[C@H]2O)ccc1O [Isorhamnetin-3-O-glucoside] | -0.7 | 
CC(C)[C@@H](C)/C=C/[C@@H](C)[C@H]1CC[C@H]2C3=CC=C4C[C@@H](O)CC[C@@]4(C)[C@@H]3CC[C@]12C [Lumisterol] | -2.7 | 
CC1=C2C(=O)O[C@@H](c3ccoc3)[C@]2(C)CCC1 [Fraxinellone] | 3.1 | 
CC(O)[C@H](C)[C@H](N)C(=O)O (stereo partly shown) [4-Hydroxyisoleucine] | -0.1 | 
CC(CN)C(=O)O (stereo not shown) [3-Amino-2-methylpropanoic acid] | -4.3 | 
OC[C@H]1O[C@H](O[C@H]2[C@H](O)[C@@H](O)[C@H](O)O[C@@H]2CO)[C@H](O)[C@@H](O)[C@@H]1O [Maltose monohydrate] |  | -1.1
C[C@H]1[C@H](C)CC[C@]2(C)CC[C@]3(C)C(=CC[C@@H]4[C@@]5(C)CC[C@@H](O)[C@](C)(C(=O)O)[C@@H]5CC[C@]43C)[C@H]12 [β-Boswellic acid] | -0.2 | 
C[C@@H](O)CO [(R)-(-)-1,2-Propanediol] | -0.2 | 
CC[C@@H]1CN2CC[C@]3(C(=O)Nc4ccccc43)[C@@H]2C[C@@H]1/C(=C\OC)C(=O)OC [Corynoxine B] | -0.5 | 
C[C@@H]1O[C@@H](O[C@H]2[C@H](O[C@H]3CC[C@@]4(C)[C@@H](CC[C@]5(C)[C@@H]4CC=C4[C@@H]6CC(C)(C)CC[C@]6(C(=O)O)CC[C@]45C)[C@]3(C)CO)OC[C@H](O)[C@@H]2O)[C@H](O)[C@H](O)[C@H]1O [alpha-Hederin] | -3 | 
C[C@H](CCC(=O)O)[C@H]1CC[C@H]2[C@@H]3C(=O)C[C@@H]4CC(=O)CC[C@]4(C)[C@H]3CC(=O)[C@]12C [Dehydrocholate (sodium)] | -1 | 
O=C(O)CCCCCC(=O)O [Pimelic acid] | 0 | 
CCCCCCCCCCCCCCCc1cccc(O)c1C(=O)O [Anacardic Acid] | -3.2 | 
C[C@H](CCC(=O)NCC(=O)O)[C@H]1CC[C@H]2[C@@H]3[C@H](O)C[C@@H]4C[C@H](O)CC[C@]4(C)[C@H]3CC[C@]12C [Glycochenodeoxycholic acid] |  | 0.1
COC(=O)/C=C/C(=O)OC [Dimethyl fumarate] | -0.3 | 
CC(C)=CCC[C@](C)(O)[C@H]1CC[C@]2(C)[C@@H]1[C@H](O)C[C@@H]1[C@@]3(C)CC[C@H](O)C(C)(C)[C@@H]3[C@@H](O[C@@H]3O[C@H](CO)[C@@H](O)[C@H](O)[C@H]3O[C@@H]3O[C@@H](C)[C@H](O)[C@@H](O)[C@H]3O)C[C@]12C [Ginsenoside Rg2] | -0.5 | 
C[C@]12CC[C@@H](O)C[C@H]1CC[C@@H]1[C@@H]2[C@@H](O)C[C@@]2(C)[C@H]1CC[C@]2(O)C(=O)CO [Tetrahydrocortisol] | -0.2 | 
COc1ccc(-c2oc3cc(O)cc(O)c3c(=O)c2O)cc1O [Tamarixetin] | 1.3 | 
COc1cc(O)cc(OC)c1OC [Antiarol] | -0.8 | 
CCCCCCCCCCCC(C)=O [2-Tridecanone] | 0.6 | 

No new results follow: 16 of the compounds above.
Structure (SMILES) | OC43 Inhibition rate [%] | OC43 Inhibition rate (OC43 Inhibition rate, 24 h) [%]
CCOC(=O)c1ccc(O)c(O)c1 [Ethyl 3,4-dihydroxybenzoate] | 0.2 | 
CCC/C=C1/OC(=O)c2ccccc21 [3-Butylidenephthalide] | -0.2 | 
COc1cc(-c2oc3cc(O)cc(O)c3c(=O)c2O[C@@H]2O[C@H](CO)[C@@H](O)[C@H](O)[C@H]2O)ccc1O [Isorhamnetin-3-O-glucoside] | -0.7 | 
CC(C)[C@@H](C)/C=C/[C@@H](C)[C@H]1CC[C@H]2C3=CC=C4C[C@@H](O)CC[C@@]4(C)[C@@H]3CC[C@]12C [Lumisterol] | -2.7 | 
CC1=C2C(=O)O[C@@H](c3ccoc3)[C@]2(C)CCC1 [Fraxinellone] | 3.1 | 
CC(O)[C@H](C)[C@H](N)C(=O)O (stereo partly shown) [4-Hydroxyisoleucine] | -0.1 | 
CC(CN)C(=O)O (stereo not shown) [3-Amino-2-methylpropanoic acid] | -4.3 | 
OC[C@H]1O[C@H](O[C@H]2[C@H](O)[C@@H](O)[C@H](O)O[C@@H]2CO)[C@H](O)[C@@H](O)[C@@H]1O [Maltose monohydrate] |  | -1.1
C[C@H]1[C@H](C)CC[C@]2(C)CC[C@]3(C)C(=CC[C@@H]4[C@@]5(C)CC[C@@H](O)[C@](C)(C(=O)O)[C@@H]5CC[C@]43C)[C@H]12 [β-Boswellic acid] | -0.2 | 
C[C@@H](O)CO [(R)-(-)-1,2-Propanediol] | -0.2 | 
CC[C@@H]1CN2CC[C@]3(C(=O)Nc4ccccc43)[C@@H]2C[C@@H]1/C(=C\OC)C(=O)OC [Corynoxine B] | -0.5 | 
C[C@@H]1O[C@@H](O[C@H]2[C@H](O[C@H]3CC[C@@]4(C)[C@@H](CC[C@]5(C)[C@@H]4CC=C4[C@@H]6CC(C)(C)CC[C@]6(C(=O)O)CC[C@]45C)[C@]3(C)CO)OC[C@H](O)[C@@H]2O)[C@H](O)[C@H](O)[C@H]1O [alpha-Hederin] | -3 | 
C[C@H](CCC(=O)O)[C@H]1CC[C@H]2[C@@H]3C(=O)C[C@@H]4CC(=O)CC[C@]4(C)[C@H]3CC(=O)[C@]12C [Dehydrocholate (sodium)] | -1 | 
O=C(O)CCCCCC(=O)O [Pimelic acid] | 0 | 
CCCCCCCCCCCCCCCc1cccc(O)c1C(=O)O [Anacardic Acid] | -3.2 | 
C[C@H](CCC(=O)NCC(=O)O)[C@H]1CC[C@H]2[C@@H]3[C@H](O)C[C@@H]4C[C@H](O)CC[C@]4(C)[C@H]3CC[C@]12C [Glycochenodeoxycholic acid] |  | 0.1

Next compounds.

Structure (SMILES) | OC43 Inhibition rate [%] | OC43 Inhibition rate (OC43 Inhibition rate, 24 h) [%]
C[N+](C)(C)[C@@H](Cc1c[nH]c2ccccc12)C(=O)[O-] [Hypaphorine] | 7.3 | 
O=c1[nH]c(=O)c2nc[nH]c2[nH]1 [Xanthine] | -0.6 | 
CC1(C)CC[C@]2(C(=O)O)CC[C@]3(C)C(=CC[C@@H]4[C@@]5(C)CC[C@H](O[C@@H]6O[C@H](C(=O)O)[C@@H](O)[C@H](O)[C@H]6O)C(C)(C)[C@@H]5CC[C@]43C)[C@@H]2C1 [Calenduloside E] | -3.6 | 
CCOC(=O)c1cc(O)c(O)c(O)c1 [Ethyl gallate] | 0.3 | 
C[C@@H]1O[C@@H](O[C@H]2[C@H](Oc3cc(O)c4c(=O)cc(-c5ccc(O)c(O)c5)oc4c3)O[C@H](CO)[C@@H](O)[C@@H]2O)[C@H](O)[C@H](O)[C@H]1O [Lonicerin] | 0.3 | 
CN1CCN2c3ccccc3Cc3ccccc3C2C1 (stereo not shown) [Mianserin (hydrochloride)] | 0.8 | 
O=c1c2ccccc2[nH]c2ccccc12 [Acridone] | 2.3 | 
CC(C)=CCc1cc(C(=O)/C=C/c2ccc(O)cc2)c(O)cc1O [Bavachalcone] | -1.3 | 
CC(C)=CCc1c(-c2ccc(O)c3c2OC(C)(C)C=C3)oc2cc(O)cc(O)c2c1=O [Kuwanon A] | -28.4 | 
C/C=C(/C)C(=O)O[C@H]1c2cc(OC)c(OC)c(OC)c2-c2c(cc3c(c2OC)OCO3)C[C@H](C)[C@]1(C)O [Schisantherin B] | 1.4 | 
C[C@H]1[C@H](C)CC[C@]2(C(=O)O)CC[C@]3(C)C(=CC[C@@H]4[C@@]5(C)C[C@@H](O)[C@H](O)[C@@](C)(CO)[C@@H]5[C@H](O)C[C@]43C)[C@H]12 [Madecassic acid] | -0.2 | 
CCOC(N)=O [Urethane] | 4.9 | 
COc1ccc2c(c1)O[C@H]1c3ccc(O)cc3OC[C@@H]21 [Medicarpin] | 0.2 | 
COc1ccc2cc1Oc1ccc(cc1)C[C@H]1c3cc(c(OC)cc3CCN1C)Oc1c(O)c(OC)cc3c1[C@H](C2)N(C)CC3 [Fangchinoline] | 41.6 | 
O=C1C[C@@H](c2ccc(O)c(O)c2)Oc2c1ccc(O[C@@H]1O[C@H](CO)[C@@H](O)[C@H](O)[C@H]1O)c2O [Flavanomarein] | -5.7 | 
O=C1c2cccc(O)c2C(=O)c2c(O)cccc21 [Danthron] | 0.8 | 
COc1cc(O)c2c(=O)c(OC)c(-c3ccc(O)c(OC)c3)oc2c1 [Pachypodol] | 0 | 
Cc1ccc(C(=O)O)cc1 [p-Toluic acid] | -3.1 | 
CNCC(=O)O [Sarcosine] | 2.2 | 
CCCC(C)C(=O)O (stereo not shown) [2-Methylvaleric acid] | -6.4 | 
